Laboratory results taken from patent US20210145933A1.
These are yes or no findings as the source states them, for the method shown. Some results given as binding are weak or reduced against the parent protein; the word gives no strength.

Chains of the proteins cited; added tags and fusions are not shown. Lines headed by an entry give the natural chain unless they say otherwise; changes in a name come on top.
UniProt P01024: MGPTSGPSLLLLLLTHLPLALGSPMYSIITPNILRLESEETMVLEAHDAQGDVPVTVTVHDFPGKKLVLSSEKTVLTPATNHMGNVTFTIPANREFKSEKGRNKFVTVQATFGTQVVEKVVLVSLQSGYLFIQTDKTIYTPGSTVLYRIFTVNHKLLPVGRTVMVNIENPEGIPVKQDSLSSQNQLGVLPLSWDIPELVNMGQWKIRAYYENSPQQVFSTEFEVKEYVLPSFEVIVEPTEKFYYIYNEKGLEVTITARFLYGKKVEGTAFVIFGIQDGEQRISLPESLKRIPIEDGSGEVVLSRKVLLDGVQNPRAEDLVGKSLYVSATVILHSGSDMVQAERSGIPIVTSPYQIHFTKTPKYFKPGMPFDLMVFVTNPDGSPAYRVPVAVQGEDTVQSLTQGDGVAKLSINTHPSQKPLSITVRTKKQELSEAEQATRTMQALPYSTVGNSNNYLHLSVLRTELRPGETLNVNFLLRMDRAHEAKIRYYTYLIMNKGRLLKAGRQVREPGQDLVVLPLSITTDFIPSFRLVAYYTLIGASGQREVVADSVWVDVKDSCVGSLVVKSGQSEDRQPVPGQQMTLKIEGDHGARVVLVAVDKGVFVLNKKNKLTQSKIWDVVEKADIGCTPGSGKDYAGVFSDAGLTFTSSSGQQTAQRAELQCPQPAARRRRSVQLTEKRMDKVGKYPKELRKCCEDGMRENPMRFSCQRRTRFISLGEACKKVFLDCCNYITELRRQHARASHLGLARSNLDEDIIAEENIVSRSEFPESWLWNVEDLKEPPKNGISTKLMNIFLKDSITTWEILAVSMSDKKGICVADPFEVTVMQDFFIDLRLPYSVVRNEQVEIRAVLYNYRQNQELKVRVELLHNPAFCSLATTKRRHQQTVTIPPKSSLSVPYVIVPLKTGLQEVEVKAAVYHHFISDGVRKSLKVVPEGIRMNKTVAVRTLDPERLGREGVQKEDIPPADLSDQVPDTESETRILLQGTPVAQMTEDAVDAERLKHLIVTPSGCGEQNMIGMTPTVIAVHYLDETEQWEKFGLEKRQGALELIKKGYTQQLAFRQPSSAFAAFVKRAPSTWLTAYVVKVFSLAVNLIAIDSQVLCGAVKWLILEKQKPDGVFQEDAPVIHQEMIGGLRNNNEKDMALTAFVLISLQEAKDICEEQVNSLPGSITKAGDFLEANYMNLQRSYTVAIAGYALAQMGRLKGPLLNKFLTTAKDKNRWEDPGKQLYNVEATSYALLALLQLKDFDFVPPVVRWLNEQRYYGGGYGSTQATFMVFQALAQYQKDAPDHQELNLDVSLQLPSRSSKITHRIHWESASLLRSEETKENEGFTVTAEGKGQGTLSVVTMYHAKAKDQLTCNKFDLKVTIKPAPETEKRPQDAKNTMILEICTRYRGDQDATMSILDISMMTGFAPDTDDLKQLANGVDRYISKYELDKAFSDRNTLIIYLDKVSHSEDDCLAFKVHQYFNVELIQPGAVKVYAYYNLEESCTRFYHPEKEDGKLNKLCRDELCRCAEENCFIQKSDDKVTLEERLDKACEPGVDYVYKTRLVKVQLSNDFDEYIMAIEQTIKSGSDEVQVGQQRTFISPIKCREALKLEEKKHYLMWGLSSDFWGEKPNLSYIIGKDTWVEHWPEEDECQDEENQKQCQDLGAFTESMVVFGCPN
UniProt P17927: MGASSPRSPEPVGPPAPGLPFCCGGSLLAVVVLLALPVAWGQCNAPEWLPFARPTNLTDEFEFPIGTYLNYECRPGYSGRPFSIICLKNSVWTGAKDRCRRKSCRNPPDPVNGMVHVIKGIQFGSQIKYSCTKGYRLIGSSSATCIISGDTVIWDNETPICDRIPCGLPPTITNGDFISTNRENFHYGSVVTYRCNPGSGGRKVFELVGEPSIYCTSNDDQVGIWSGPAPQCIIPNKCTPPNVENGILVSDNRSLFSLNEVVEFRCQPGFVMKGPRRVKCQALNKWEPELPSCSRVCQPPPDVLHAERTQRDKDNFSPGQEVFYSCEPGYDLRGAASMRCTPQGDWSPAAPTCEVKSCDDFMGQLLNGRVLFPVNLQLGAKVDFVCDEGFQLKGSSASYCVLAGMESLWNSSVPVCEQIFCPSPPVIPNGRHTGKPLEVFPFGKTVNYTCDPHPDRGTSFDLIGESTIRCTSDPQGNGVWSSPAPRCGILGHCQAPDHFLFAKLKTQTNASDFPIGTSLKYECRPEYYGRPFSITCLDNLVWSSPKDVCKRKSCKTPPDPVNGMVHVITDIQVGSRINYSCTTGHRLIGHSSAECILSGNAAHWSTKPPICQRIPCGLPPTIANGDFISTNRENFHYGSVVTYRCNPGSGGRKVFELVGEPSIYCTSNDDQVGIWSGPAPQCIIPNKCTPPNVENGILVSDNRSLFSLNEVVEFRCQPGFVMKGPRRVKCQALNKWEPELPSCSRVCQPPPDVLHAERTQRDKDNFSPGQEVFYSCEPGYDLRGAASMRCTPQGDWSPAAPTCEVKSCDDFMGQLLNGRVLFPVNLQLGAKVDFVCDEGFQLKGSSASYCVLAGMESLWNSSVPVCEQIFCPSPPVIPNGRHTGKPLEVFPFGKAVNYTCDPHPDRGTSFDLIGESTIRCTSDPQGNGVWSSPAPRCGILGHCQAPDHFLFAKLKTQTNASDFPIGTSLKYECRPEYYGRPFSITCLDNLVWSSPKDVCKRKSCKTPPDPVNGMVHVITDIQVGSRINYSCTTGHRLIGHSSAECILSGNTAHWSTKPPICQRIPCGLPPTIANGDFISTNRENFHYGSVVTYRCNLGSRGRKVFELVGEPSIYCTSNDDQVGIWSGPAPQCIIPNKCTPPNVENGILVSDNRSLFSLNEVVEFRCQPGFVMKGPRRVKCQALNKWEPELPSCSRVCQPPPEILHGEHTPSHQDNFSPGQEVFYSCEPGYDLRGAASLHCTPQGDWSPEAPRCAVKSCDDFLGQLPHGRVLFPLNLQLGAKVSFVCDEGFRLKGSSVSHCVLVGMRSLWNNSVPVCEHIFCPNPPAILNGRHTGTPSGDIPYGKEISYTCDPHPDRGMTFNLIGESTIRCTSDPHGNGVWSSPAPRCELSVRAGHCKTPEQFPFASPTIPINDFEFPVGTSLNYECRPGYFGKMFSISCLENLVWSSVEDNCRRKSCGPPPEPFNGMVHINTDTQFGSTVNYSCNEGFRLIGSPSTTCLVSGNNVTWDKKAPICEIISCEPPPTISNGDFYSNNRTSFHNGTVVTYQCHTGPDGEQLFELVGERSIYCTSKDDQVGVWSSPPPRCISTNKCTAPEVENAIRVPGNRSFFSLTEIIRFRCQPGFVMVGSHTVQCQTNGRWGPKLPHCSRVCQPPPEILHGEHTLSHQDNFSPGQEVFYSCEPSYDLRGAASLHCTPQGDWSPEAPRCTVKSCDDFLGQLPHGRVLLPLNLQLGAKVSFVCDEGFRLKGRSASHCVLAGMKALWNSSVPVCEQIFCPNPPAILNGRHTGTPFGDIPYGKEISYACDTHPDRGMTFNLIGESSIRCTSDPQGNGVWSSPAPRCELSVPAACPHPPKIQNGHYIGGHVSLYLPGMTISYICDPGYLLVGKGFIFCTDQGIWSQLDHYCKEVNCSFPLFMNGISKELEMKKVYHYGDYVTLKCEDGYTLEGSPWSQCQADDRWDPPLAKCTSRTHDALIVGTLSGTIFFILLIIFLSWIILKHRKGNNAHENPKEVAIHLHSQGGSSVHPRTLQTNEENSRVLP
UniProt P08603: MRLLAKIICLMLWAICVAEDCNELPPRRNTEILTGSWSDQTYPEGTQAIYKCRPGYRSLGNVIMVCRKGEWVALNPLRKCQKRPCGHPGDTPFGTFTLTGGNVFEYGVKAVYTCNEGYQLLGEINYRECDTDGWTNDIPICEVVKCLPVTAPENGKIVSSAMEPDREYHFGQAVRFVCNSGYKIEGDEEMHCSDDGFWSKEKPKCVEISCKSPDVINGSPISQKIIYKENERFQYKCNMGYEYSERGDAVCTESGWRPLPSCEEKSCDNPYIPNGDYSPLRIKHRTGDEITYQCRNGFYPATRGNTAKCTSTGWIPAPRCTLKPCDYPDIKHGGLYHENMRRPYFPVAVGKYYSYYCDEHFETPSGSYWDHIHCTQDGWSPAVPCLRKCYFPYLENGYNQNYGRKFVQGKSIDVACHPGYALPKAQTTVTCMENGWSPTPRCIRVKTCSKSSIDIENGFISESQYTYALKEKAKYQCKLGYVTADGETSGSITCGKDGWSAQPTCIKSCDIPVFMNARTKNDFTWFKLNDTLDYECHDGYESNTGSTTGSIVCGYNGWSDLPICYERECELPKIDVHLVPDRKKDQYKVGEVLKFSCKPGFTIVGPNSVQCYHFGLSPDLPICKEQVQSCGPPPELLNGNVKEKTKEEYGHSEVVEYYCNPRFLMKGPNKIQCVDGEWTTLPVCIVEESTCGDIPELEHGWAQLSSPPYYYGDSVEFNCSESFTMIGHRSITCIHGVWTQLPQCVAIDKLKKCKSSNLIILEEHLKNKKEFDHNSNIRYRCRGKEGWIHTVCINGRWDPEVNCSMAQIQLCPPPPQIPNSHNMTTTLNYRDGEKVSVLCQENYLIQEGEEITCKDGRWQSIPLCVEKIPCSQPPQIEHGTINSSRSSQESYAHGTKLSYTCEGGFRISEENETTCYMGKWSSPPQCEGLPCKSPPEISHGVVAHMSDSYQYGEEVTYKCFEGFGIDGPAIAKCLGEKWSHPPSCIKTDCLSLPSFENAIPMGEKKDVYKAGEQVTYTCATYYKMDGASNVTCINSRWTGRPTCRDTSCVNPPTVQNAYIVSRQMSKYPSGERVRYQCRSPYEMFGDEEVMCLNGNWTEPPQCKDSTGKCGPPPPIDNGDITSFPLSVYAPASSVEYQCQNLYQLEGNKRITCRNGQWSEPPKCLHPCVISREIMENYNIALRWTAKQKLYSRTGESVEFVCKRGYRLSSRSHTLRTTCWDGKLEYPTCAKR

Tests used:
C3b (human) [1] = target: C3b (human) (UniProt P01024); assay: BLI (OctetRed96), immobilised biotinylated C3b
C3b (human) [2] = target: C3b (human) (UniProt P01024); assay: BLI (OctetRed96), biotinylated C3b on streptavidin (SAX) sensors, concentration series of CR1a [cont'd]
C3b (human) [3] = target: C3b (human) (UniProt P01024); assay: BLI (OctetRed96), biotinylated C3b on streptavidin (SAX) sensors, concentration series of FH [cont'd]
C3b (human) [4] = target: C3b (human) (UniProt P01024); assay: BLI (OctetRed96), biotinylated C3b on streptavidin (SAX) sensors, concentration series of FHL-1 [cont'd]

Question: Which results are given for “CR1a (CCPs 8-10 of human Complement Receptor 1, secreted from HEK293 cells) (from UniProt P17927 491-684)”?
Answer: binding (C3b (human) [1]): binds; binding (C3b (human) [2]): binds

Question: With “Complement Factor H (FH) (from UniProt P08603 19-1231)” as the substance, how does the binding (C3b (human) [3]) read?
Answer: Its binding is “binds”.

Question: With “Complement Factor H isoform FHL-1 (from UniProt P08603 19-445)” as the substance, how does the binding (C3b (human) [4]) read?
Answer: The binding was “binds”.
